Reference: paper doi:10.1101/2022.07.22.501200
Results are given in words; binding and its absence hold for the method and conditions named. In cells and extracts the contact can be indirect. Some results given as binding are weak or reduced against the parent protein; the word gives no strength. Tags and fused reporters may be left off the sequences shown.

By UniProt entry, the sequences of proteins in these tests, tags left out.
UniProt G5EES3: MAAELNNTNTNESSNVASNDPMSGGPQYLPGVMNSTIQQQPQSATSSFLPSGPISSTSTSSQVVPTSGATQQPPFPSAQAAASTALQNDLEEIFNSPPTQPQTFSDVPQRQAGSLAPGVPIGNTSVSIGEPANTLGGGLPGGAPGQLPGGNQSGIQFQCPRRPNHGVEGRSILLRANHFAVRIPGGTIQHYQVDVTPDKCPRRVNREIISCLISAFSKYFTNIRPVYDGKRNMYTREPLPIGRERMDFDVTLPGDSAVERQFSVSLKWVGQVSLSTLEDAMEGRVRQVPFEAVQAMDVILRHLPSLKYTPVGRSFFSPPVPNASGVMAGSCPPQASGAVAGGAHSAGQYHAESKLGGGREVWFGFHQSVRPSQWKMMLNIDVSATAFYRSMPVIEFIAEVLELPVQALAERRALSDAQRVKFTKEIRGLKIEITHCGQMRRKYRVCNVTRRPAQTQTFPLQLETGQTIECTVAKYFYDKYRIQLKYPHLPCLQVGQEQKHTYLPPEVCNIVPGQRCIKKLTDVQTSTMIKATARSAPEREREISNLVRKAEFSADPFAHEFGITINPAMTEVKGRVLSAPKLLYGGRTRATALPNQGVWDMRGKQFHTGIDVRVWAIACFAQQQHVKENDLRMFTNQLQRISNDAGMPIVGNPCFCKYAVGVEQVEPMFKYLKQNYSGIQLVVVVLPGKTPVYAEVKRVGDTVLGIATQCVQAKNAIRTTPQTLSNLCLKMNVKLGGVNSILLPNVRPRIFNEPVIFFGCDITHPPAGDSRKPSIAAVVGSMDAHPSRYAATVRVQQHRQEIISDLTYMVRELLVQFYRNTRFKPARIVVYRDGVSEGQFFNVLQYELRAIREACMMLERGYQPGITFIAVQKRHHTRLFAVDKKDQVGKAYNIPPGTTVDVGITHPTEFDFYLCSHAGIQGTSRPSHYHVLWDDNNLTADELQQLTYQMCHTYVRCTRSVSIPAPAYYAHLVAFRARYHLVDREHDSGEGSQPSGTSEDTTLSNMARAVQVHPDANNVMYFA

Molecular target: T1, HRPA-1::AID*::TEV::FLAG (C. elegans) (UniProt Q22037)
T1 sequence: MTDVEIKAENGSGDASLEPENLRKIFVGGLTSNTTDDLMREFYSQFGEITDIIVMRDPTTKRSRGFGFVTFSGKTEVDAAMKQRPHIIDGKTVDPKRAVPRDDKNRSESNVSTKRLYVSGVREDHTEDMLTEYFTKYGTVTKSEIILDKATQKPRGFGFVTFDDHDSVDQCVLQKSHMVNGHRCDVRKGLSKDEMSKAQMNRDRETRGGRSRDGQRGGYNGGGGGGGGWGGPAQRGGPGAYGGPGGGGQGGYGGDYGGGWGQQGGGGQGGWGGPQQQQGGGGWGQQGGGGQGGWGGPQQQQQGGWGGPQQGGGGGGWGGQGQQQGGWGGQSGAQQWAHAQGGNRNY
Test: co-IP

binding: binds weakly
Substance: ALG-1 (from UniProt G5EES3 1-1023)
